No constants are given. Whether binding was seen depends on the method and setting. Binding seen in cells or lysates may run through a third protein. Some entries that bind do so weakly or less than the wild type.
Biological target: T1, hyaluronan-mediated motility receptor (Hmmr), endogenous (mouse (endogenous in N2a)) (UniProt Q00547)
T1 sequence: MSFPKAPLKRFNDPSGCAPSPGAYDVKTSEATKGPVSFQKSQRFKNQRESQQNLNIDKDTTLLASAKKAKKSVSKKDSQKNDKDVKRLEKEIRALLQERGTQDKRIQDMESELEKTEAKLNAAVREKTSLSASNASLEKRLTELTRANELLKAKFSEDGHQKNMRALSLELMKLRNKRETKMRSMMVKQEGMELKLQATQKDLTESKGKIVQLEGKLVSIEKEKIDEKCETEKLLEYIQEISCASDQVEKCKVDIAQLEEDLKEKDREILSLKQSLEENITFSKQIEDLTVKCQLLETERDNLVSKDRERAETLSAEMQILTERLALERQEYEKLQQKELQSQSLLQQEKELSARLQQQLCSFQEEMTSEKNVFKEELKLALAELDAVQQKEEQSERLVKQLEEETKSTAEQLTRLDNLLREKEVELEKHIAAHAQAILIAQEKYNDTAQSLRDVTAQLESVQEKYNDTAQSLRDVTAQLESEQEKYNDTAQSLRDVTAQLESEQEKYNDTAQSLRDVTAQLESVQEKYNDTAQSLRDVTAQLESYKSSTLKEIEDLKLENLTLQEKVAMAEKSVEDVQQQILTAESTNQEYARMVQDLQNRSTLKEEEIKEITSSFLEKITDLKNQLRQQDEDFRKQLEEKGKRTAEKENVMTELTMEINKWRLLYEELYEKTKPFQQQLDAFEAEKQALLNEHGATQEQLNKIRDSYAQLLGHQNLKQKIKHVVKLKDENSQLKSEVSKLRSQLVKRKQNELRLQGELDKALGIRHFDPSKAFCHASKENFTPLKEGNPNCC
Assay: co-IP; endogenous proteins; Hmmr antibody on Protein G/A Sepharose beads, blot with Trim25 antibody; IP lysis buffer 50 mmol/L Tris-HCl pH 7.4, 10 mmol/L KCl, 1.5 mmol/L MgCl2, 1% NP-40 with RNase inhibitors; 4°C overnight

The chains behind the UniProt entries cited, without tags or fusion partners.
UniProt Q61510: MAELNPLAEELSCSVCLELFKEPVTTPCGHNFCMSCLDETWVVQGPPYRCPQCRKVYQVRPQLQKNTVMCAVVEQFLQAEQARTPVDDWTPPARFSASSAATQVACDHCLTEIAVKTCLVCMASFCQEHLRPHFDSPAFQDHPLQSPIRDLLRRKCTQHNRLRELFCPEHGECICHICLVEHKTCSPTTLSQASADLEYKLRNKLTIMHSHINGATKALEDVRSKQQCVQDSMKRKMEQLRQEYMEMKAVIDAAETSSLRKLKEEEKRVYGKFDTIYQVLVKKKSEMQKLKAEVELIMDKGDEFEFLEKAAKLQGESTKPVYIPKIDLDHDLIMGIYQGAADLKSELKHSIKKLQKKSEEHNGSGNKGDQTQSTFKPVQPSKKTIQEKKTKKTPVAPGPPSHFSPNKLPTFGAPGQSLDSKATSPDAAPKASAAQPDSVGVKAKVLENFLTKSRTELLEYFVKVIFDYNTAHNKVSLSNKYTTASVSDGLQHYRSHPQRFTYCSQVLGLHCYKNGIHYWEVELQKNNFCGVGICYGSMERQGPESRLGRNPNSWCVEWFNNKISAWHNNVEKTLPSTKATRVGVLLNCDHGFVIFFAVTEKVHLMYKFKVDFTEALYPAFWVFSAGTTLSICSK

binding: binds
Substance: Trim25, endogenous (from UniProt Q61510 1-634)
